# PubChem BioAssay AID1224827 | NIAID – 2016
# Assay: 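Confirm genes whose knock-down changes LPS-driven TNF promoter activity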 (follow-up of hits)
# System: RAW264.7 G9 mouse macrophage reporter clone
# Reagent: single siRNA against mouse genes, 100 nM siRNA
# Duration: siRNA for 2 days, then LPS about 16 h
# Conditions: bacterial lipopolysaccharide (LPS), 10 ng/ml, cells fixed after overnight (about 16 h) stimulation
# Measured: 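Imaged nuclear TNF reporter intensity, background removed, scaled per plate and to non-targeting control wells, as z-scores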
# Scale: TNF reporter z-score, mean and TNF reporter z-score: higher = stronger Tnf promoter reporter signal; gene median z, three same-vendor siRNAs: higher = stronger Tnf reporter signal for the gene
# Active means: 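Active siRNA: replicate-mean z-score of 2 or more, or -2 or less; no calls for control wells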
# The whole screen tested about 3,800 reagents; this is a random part of them. About 2,200 of all reagents (57%) count as active. 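Active means a strong reporter change in either direction; calls are per siRNA, not per gene; qiagen siRNAs gave weaker effects.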 Unmarked entries are inactive. The numbers tell different reagents against one gene apart.
gene knocked down,reagent,"TNF reporter z-score, mean","gene median z, three same-vendor siRNAs","TNF reporter z-score, repeat 1","TNF reporter z-score, repeat 2"
Rdh16f2,1,6.56 (active),-3.4,7.58,5.53
Rdh16f2,2,-3.4 (active),-3.4,-3.5,-3.3
Rdh16f2,3,-4.36 (active),-3.4,-4.2,-4.52
Rdh16f2,4,1.19,-0.638,3.44,-1.07
Rdh16f2,5,-0.0595,-0.638,1.22,-1.34
Rdh16f2,6,-0.638,-0.638,-0.609,-0.666
Map1a,1,0.212,-0.398,0.112,0.312
Map1a,2,0.559,-0.398,2.03,-0.907
Map1a,3,-3.57 (active),-0.398,-3.1,-4.04
Adipoq,1,-2.48 (active),-3.31,-3.84,-1.11
Adipoq,2,-2.69 (active),-3.31,-2.78,-2.6
Adipoq,3,-4.88 (active),-3.31,-5.48,-4.27
Adipoq,4,6.82 (active),-0.405,11.2,2.48
Adipoq,5,-0.405,-0.405,0.0878,-0.897
Adipoq,6,-2.94 (active),-0.405,-3.42,-2.45
R3hdm2,1,1.46,-3.34,0.714,2.21
R3hdm2,2,-3.34 (active),-3.34,-3.82,-2.86
R3hdm2,3,-3.94 (active),-3.34,-3.9,-3.98
R3hdm2,4,-1.78,-2.84,0.0533,-3.61
R3hdm2,5,-2.66 (active),-2.84,-2.91,-2.42
R3hdm2,6,-3.53 (active),-2.84,-4.28,-2.78
Gphr,1,-2.99 (active),-3.58,-3.06,-2.91
Gphr,2,-4.19 (active),-3.58,-2.75,-5.63
Gphr,3,-4.3 (active),-3.58,-4.1,-4.5
Gphr,4,0.524,-2.08,2.3,-1.25
Gphr,5,-1.31,-2.08,0.288,-2.92
Gphr,6,-3.65 (active),-2.08,-3,-4.3
Tnfrsf22,1,0.378,-2.67,-0.0449,0.801
Tnfrsf22,2,-2.67 (active),-2.67,-2.9,-2.43
Tnfrsf22,3,-3.86 (active),-2.67,-3.35,-4.36
Tnfrsf22,4,2.47 (active),1.21,3.11,1.82
Tnfrsf22,5,0.432,1.21,0.59,0.274
Tnfrsf22,6,0.862,1.21,2.17,-0.443
Or10q12,1,2.49 (active),-2.66,1.99,2.99
Or10q12,2,-2.71 (active),-2.66,-2.46,-2.96
Or10q12,3,-2.92 (active),-2.66,-2.98,-2.86
Or10q12,4,-0.62,-1.67,-0.562,-0.678
Or10q12,5,-1.67,-1.67,-2.01,-1.33
Or10q12,6,-3.96 (active),-1.67,-4.11,-3.81
Creb5,1,0.782,-0.586,1.25,0.315
Creb5,2,1.14,-0.586,3.76,-1.49
Creb5,3,-4.4 (active),-0.586,-4.74,-4.06
Cmss1,1,0.332,-3.43,1.27,-0.605
Cmss1,2,-3.69 (active),-3.43,-3.87,-3.5
Cmss1,3,-4.01 (active),-3.43,-4.66,-3.36
Cmss1,4,1.27,-0.104,2.15,0.38
Cmss1,5,0.342,-0.104,1.27,-0.589
Cmss1,6,-2.29 (active),-0.104,-2.14,-2.44
Hnrnpd,1,-0.615,-3.72,-1.96,0.727
Hnrnpd,2,-3.72 (active),-3.72,-3.97,-3.46
Hnrnpd,3,-4.42 (active),-3.72,-4.62,-4.22
Hnrnpd,4,1.81,0.757,1.89,1.73
Hnrnpd,5,1.25,0.757,2.72,-0.219
Hnrnpd,6,-1.05,0.757,-1.06,-1.04
Brs3,1,2.09 (active),-1.48,0.875,3.31
Brs3,2,-1.48,-1.48,-1.64,-1.31
Brs3,3,-3.17 (active),-1.48,-3.64,-2.7
Brs3,4,2.27 (active),0.145,3.45,1.1
Brs3,5,0.0986,0.145,1.27,-1.07
Brs3,6,-1.03,0.145,-0.809,-1.26

Reprinted from the entries so far for reference:
gene knocked down,reagent,"TNF reporter z-score, mean","gene median z, three same-vendor siRNAs","TNF reporter z-score, repeat 1","TNF reporter z-score, repeat 2"
Rdh16f2,4,1.19,-0.638,3.44,-1.07
Rdh16f2,5,-0.0595,-0.638,1.22,-1.34
Rdh16f2,6,-0.638,-0.638,-0.609,-0.666
Map1a,1,0.212,-0.398,0.112,0.312
